Assay results: PubChem BioAssay AID330 (DTP/NCI, 2004)
The list is a part of this screen's results and no random one: it gathers tests that were run many times, whatever their T/C, doses with no T/C, and many T/C values between a quarter and a half above the control. Further doses and runs are listed elsewhere. T/C is the treated group as % of the vehicle group. Some entries give survivors of the animals treated and no T/C: the source holds a T/C of zero for them, seemingly a mark for toxic or unscored doses. Some survivor counts are full or nearly so, which does not show that the dose was tolerated: the source hardly ever lists a survival T/C far under the control, and the zero likely stands for such cases as well. Counts of survivors are from the toxicity check (mostly the fifth day) where no day follows; animals may have died later. Schedules are NCI's codes, taken here to give the interval after Q, in days (D) or hours (H), and the number of doses after X. Some schedule codes hold Z or #, which are not explained here. Some structures stand for samples that the source files as different forms (salt, stereo form or complex); doses refer to the form tested. Some doses were run more than once; their values stand side by side, smallest first. For survival time, this PubChem deposit counts one and a half times the control or more as active, and values a quarter to a half above the control carry no call in these data; other NCI protocols may use other cut-offs. Marks such as (2×) stand for listed records that agree. Some T/C values are followed by the survivors on the day toxicity was checked, most often the fifth; where none is given, no animal had died by that day.

System: P388 leukemia ip, CD2F1 mice, survival T/C
Test: NCI In Vivo Anticancer Drug Screen. Data for tumor model P388 Leukemia (intraperitoneal) in CD2F1 (CDF1) mice
Conditions: T/C endpoint: median survival time, higher T/C = longer survival
[1] = dose: 5.0 mg/kg/injection, schedule: Q01DX005 (ip), vehicle: saline

CCCCCCCCCCCCSC1=C(Cl)C(=O)C(OC)=C(OC)C1=O
survivor count (dose: 100.0 mg/kg/injection, schedule: Q01DX Z (ip), vehicle: saline): 1 of 3
survivor count (dose: 200.0 mg/kg/injection, schedule: Q01DX Z (ip), vehicle: saline): 0 of 3

N#Cc1c(C(=O)NN)c2c(-c3ccccc3)n[nH]c(=O)c2[nH]c1=O
survivor count (dose: 400.0 mg/kg/injection, schedule: Q01DX001 (ip), vehicle: saline with Tween-80): 6 of 6

CCC(=O)N(C)C(C)C(=O)OC1CC(=O)N(C)c2cc(cc(OC)c2Cl)CC(CBr)=C/C=C/C(OC)C2(O)CC(OC(=O)N2)C(C)C2OC12C (stereo not given)
T/C (dose: 2.0 micrograms/kg/injection, schedule: Q01DX009 (ip), vehicle: saline + alcohol): 126 % of control
T/C (dose: 4.0 micrograms/kg/injection, schedule: Q01DX009 (ip), vehicle: saline + alcohol): 126 and 137 % of control
T/C (dose: 8.0 micrograms/kg/injection, schedule: Q01DX009 (ip), vehicle: saline + alcohol): 128 and 137 % of control
T/C (dose: 16.0 micrograms/kg/injection, schedule: Q01DX009 (ip), vehicle: saline + alcohol): 137 and 149 % of control
T/C (dose: 32.0 micrograms/kg/injection, schedule: Q01DX009 (ip), vehicle: saline + alcohol): 144 % of control
survivor count (dose: 64.0 micrograms/kg/injection, schedule: Q01DX009 (ip), vehicle: saline + alcohol): 6 of 6
survivor count (dose: 128.0 micrograms/kg/injection, schedule: Q01DX009 (ip), vehicle: saline + alcohol): 3 of 6

CN(C)[C@@H]1C(=O)C(C(=O)NCN2CCN(C(=N)N=C(N)N)CC2)=C(O)[C@@]2(O)C(=O)C3=C(O)c4c(O)cccc4[C@@](C)(O)[C@H]3C[C@@H]12
T/C (dose: 0.31 mg/kg/injection, schedule: Q01DX005 (ip), vehicle: saline): 126 % of control
T/C (dose: 0.62 mg/kg/injection, schedule: Q01DX005 (ip), vehicle: saline): 117, 118, 121 (2×), 122 % of control
T/C (dose: 1.25 mg/kg/injection, schedule: Q01DX005 (ip), vehicle: saline): 116, 120 (2×), 122, 136 % of control
T/C (dose: 1.8 mg/kg/injection, schedule: Q01DX005 (ip), vehicle: saline): 125 % of control
T/C (dose: 1.8 mg/kg/injection, schedule: Q01DX005 (ip), vehicle: suspension in saline): 130 % of control
T/C (dose: 2.5 mg/kg/injection, schedule: Q01DX005 (ip), vehicle: saline): 125, 126, 131, 134, 153 % of control
T/C (dose: 3.0 mg/kg/injection, schedule: Q01DX005 (ip), vehicle: saline): 127 % of control
T/C (dose: 3.0 mg/kg/injection, schedule: Q01DX005 (ip), vehicle: suspension in saline): 134 % of control
T/C [1]: 116, 139, 161, 166, 186, 193 % of control
survivor count [1]: 2 of 5
T/C (dose: 5.0 mg/kg/injection, schedule: Q01DX005 (ip), vehicle: suspension in saline): 130 % of control [5 of 6 alive]
survivor count (dose: 8.32 mg/kg/injection, schedule: Q01DX005 (ip), vehicle: saline): 5 of 6
survivor count (dose: 8.33 mg/kg/injection, schedule: Q01DX005 (ip), vehicle: suspension in saline): 3 of 6
survivor count (dose: 10.0 mg/kg/injection, schedule: Q01DX005 (ip), vehicle: saline): 5 of 6
survivor count (dose: 13.88 mg/kg/injection, schedule: Q01DX005 (ip), vehicle: saline): 1 of 6
survivor count (dose: 13.89 mg/kg/injection, schedule: Q01DX005 (ip), vehicle: saline): 6 of 6
survivor count (dose: 13.89 mg/kg/injection, schedule: Q01DX005 (ip), vehicle: suspension in saline): 0 of 6

COc1cc(Br)c2nsnc2c1
survivor count (dose: 200.0 mg/kg/injection, schedule: Q01DX005 (ip), vehicle: saline with Tween-80): 0 of 6

C=C1C(=O)OC2/C=C(\C)CC/C=C(\C)CC(OC(=O)/C(=C/C)CO)C12 (stereo not given)
survivor count (dose: 200.0 mg/kg/injection, schedule: Q01DX001 (ip), vehicle: Klucel (hydroxypropylcellulose) (HPC)): 0 of 6
survivor count (dose: 400.0 mg/kg/injection, schedule: Q01DX001 (ip), vehicle: Klucel (hydroxypropylcellulose) (HPC)): 0 of 6

COc1ccc(-c2cc(=O)c3ccc4cc(OC)c(OC)cc4c3o2)cc1
survivor count (dose: 25.0 mg/kg/injection, schedule: Q01DX009 (ip), vehicle: other): 6 of 6
survivor count (dose: 50.0 mg/kg/injection, schedule: Q01DX009 (ip), vehicle: other): 6 of 6

CC[N+](CC)(CC)c1ccccc1
survivor count (dose: 50.0 mg/kg/injection, schedule: Q04DX002 (ip), vehicle: saline): 0 of 6
survivor count (dose: 100.0 mg/kg/injection, schedule: Q04DX002 (ip), vehicle: saline): 0 of 6

Cc1noc(NS(=O)(=O)c2ccc(N=Nc3cc(N=Nc4ccc(S(=O)(=O)Nc5onc(C)c5C)cc4)c4c(NC(=O)C(Cl)Cl)cccc4c3OC(=O)C(Cl)Cl)cc2)c1C (tested in a mixture with another compound)
survivor count (dose: 200.0 mg/kg/injection, schedule: Q01DX009 (ip), vehicle: saline with Tween-80): 2 of 6 and 3 of 6
